In article PMC5653820:

Molecular target: cyclin-dependent kinase 5 (melanocytes of the K10 experiments) (not stated (alpaca melanocytes in the results, mouse melanocytes in the methods)) (UniProt P49615)
Test: affinity purification with mass spectrometry; total proteins from melanocytes precleared with protein-A/G beads, anti-Cdk5 antibody overnight, protein-A/G beads 2 h; LC-ESI-Q-TOF mass spectrometry, IPI database

B1: Keratin 10 (protein, UniProt P02535 1-570)
chain: MSVLYSSSSKQFSSSRSGGGGGGGSVRVSSTRGSLGGGYSSGGFSGGSFSRGSSGGGCFGGSSGGYGGFGGGGSFGGGYGGSSFGGGYGGSSFGGGYGGSSFGGAGFGGGGSFGGGSFGGGSYGGGFGGGGFGGDGGSLLSGNGRVTMQNLNDRLASYMDKVRALEESNYELEGKIKEWYEKHGNSSQREPRDYSKYYKTIEDLKGQILTLTTDNANVLLQIDNARLAADDFRLKYENEVTLRQSVEADINGLRRVLDELTLSKSDLEMQIESLNEELAYLKKNHEEEMRDLQNVSTGDVNVEMNAAPGVDLTQLLNNMRNQYEQLAEKNRKDAEEWFNQKSKELTTEIDSNIEQMSSHKSEITELRRTVQGLEIELQSQLALKQSLEASLAETEGRYCVQLSQIQSQISALEEQLQQIRAETECQNAEYQQLLDIKTRLENEIQTYRSLLEGEGSSSGGGGGRRGGSGGGSYGGSSGGGSYGGSSGGGGSYGGSSGGGGSYGGGSSGGGSHGGSSGGGYGGGSSSGGAGGHGGSSGGGYGGGSSSGGQGGSGGFKSSGGGDQSSKGPRY
Which binding does the source give for B1 here?
The binding was “binds”.

No constants are given. Whether binding was seen depends on the method and setting. Binding seen in cells or lysates may run through a third protein. A yes stands for co-enrichment or nearness to the bait. Other partners may have been found.
